For at least one compound, name, drawing or mass did not settle the structure. Some entries share one result that the patent states for a list of compounds. Some ranges recur; such a range may be that of the whole group of compounds.
Key:
[1] = tested on: FMRP protein in FXS iPSCs (FXS 848-iPS3 cells); test: immunoblot analysis of FMRP protein levels in FXS iPSCs; format: cell-based, human; conditions: immunoblot (FIG. 8B)
[2] = tested on: epigenetically silenced FMR1 gene in FXS iPSCs (FXS 848-iPS3 cells); test: qRT-PCR analysis monitoring expression of FMR1 in FXS iPSCs; format: cell-based, human; conditions: normalized to wild-type iPSCs (BJ1-iPS4) (FIG. 8A)
Description: FMR1 expression was normalized to that obtained upon expression of a control non-silencing (NS) shRNA, which was set to 1. […] FMR1 expression was normalized to that obtained upon treatment with the vehicle DMSO, which was set to 1. *P<0.05, **P<0.01.
The results were normalized to that obtained in wild-type iPSCs (BJ1-iPS4 cells), which was set to 1.
The results were normalized to that obtained in wild-type iPSCs (BJ1-iPS4 cells), which was set to 1. […] The levels of FMRP in wild-type iPSCs are shown. Tubulin was monitored as a loading control. […] The results were normalized to that obtained with DMSO, which was set to 1. […] Data are represented as mean±SD.
Data are represented as mean±SD.
All of the factors required for depositing or removing the epigenetic marks mentioned in the above table have been systematically knocked down using short hairpin RNAs (shRNAs) (FIG. 3). These experiments were performed in induced pluripotent stem cells (iPSCs) derived from an FXS patient.
For many of these factors (all except SUV420H1 and SUV420H2), small molecule inhibitors are available (Table 1). Therefore whether small molecule inhibitors can, like RNAi knockdown, de-repress the FMR1 gene was tested. […] In addition, the DNMT inhibitor 5-azacytidine was analyzed as a positive control.
To identify epigenetic regulators that mediate silencing of FMR1, a small-scale short hairpin RNA (shRNA) library comprising 162 shRNAs directed against 33 well-characterized epigenetic regulators that mediate transcriptional repression was assembled. Each shRNA was packaged into lentivirus and transduced into an undifferentiated FXS iPSC line (FXS 848-iPS3 cells). Twenty days post-transfection, mRNA was prepared and FMR1 expression analyzed by quantitative RT-PCR (qRT-PCR). […] For convenience, below factors that promote FMR1 silencing are referred to as FMR1 Silencing Factors (FMR1-SFs).
To determine the level of FMR1 reactivation obtained following shRNA-mediated knockdown of an FMR1-SF, an iPSC line derived from a normal individual (BJ1-iPS4) was analyzed in parallel.
For several of the FMR1-SFs, there are well described small molecule inhibitors.
Several additional experiments with the EZH2 inhibitor EPZ6483, which is currently in several clinical trials.

FXS patients = FXS patients treated with the compound; cited from earlier work

Row | SMILES | FMRP protein level after reactivation [1] | FMR1 mRNA level after reactivation [2] | clinical outcome in FXS patients (FXS patients)
1 | Nc1ncn([C@@H]2O[C@H](CO)[C@@H](O)[C@H]2O)c(=O)n1 [5-azacytidine] | 15-20 % of wild-type levels | 15-20 % of wild-type levels | –
2 | O=C1C(=Cc2cccnc2)C(=O)c2ccccc21 [PRT4165] | 15-20 % of wild-type levels | 15-20 % of wild-type levels | –
3 | CCN(c1cc(-c2ccc(CN3CCOCC3)cc2)cc(C(=O)NCc2c(C)cc(C)[nH]c2=O)c1C)C1CCOCC1 [EPZ6438] | 15-20 % of wild-type levels | 15-20 % of wild-type levels | –
4 | CC[C@H](C)n1cc(C)c2c(C(=O)NCc3c(C)cc(C)[nH]c3=O)cc(-c3ccc(N4CCNCC4)nc3)cc21 [GSK126] | 15-20 % of wild-type levels | 15-20 % of wild-type levels | –
5 | CN(C)c1ccc(O)c2c1C[C@H]1C[C@H]3[C@H](N(C)C)C(O)=C(C(N)=O)C(=O)[C@@]3(O)C(O)=C1C2=O [minocycline] | – | – | modest but positive outcomes

Reference: US11819554B2, “Compositions and methods for modulating FMR1 expression” (University of Massachusetts, priority 2015, dated 2023)
